The results in this text go back to doi:10.1101/580043.

No constants are given. Whether binding was seen depends on the method and setting. Binding seen in cells or lysates may run through a third protein. A yes stands for co-enrichment or nearness to the bait. Other partners may have been found.

For this assay, the target named is T1, PRG-1, endogenous, immunoprecipitated from wild-type N2 animals (C. elegans (endogenous in N2 animals)) (UniProt P90786).
T1 sequence: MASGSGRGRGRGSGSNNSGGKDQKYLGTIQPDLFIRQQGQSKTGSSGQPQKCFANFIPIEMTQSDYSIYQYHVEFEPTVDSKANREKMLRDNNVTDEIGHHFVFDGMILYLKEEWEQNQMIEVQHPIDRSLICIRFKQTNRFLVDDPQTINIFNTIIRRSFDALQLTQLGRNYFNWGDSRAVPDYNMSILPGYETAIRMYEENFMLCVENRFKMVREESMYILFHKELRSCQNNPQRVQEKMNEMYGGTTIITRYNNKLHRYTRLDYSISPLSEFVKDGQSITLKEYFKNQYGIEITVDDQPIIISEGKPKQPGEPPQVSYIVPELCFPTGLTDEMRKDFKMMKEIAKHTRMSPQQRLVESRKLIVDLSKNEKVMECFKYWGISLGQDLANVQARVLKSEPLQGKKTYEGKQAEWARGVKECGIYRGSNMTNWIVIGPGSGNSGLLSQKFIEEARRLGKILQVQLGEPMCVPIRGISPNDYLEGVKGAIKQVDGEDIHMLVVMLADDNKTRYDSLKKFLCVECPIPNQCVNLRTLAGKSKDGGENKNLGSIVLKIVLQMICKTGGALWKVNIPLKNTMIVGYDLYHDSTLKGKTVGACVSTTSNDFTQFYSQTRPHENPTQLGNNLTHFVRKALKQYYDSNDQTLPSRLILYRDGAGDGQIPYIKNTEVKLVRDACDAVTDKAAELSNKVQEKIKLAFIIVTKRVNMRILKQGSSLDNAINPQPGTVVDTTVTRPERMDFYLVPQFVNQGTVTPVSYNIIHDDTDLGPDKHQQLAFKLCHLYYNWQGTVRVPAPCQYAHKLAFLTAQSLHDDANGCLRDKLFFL
In words: affinity purification with mass spectrometry.

B1: DEPS-1, endogenous, in lysate of wild-type N2 animals (protein, UniProt Q9N303 1-619)
chain: MSERQSKYFDYQGIVISSTGQDNQDSETDLVYLIQAHGKAAPKNIMYGVSKCAFVPTNLERNFDNIEEAKNLERRSKIPLKFGEVILWNESDCDHDKRIILHIKREKPIYEASSSRNGLILKVGGVIQPTSTTSFWTPLCTVTMPETEATRAEPDVWLYAWIRFETTMKSGLDPFNMTATFESFDSCDPSDQARVCEAPWNAGSPDSKFGVWRPDPKPADSDDEIDIEPREGWHLPEDKWAEVIKMQLGLYVGERLLICKELSQFDFIIPLQKPFSRGTDKTLIYPAVGEYFHFSAIWSMQHNGFLIYELQPVPLLRQHVTSVNGNLLTRVVPASIRGLFVDKEGTLGLIDDPHHLLSFFEFHPAGYEFLKAMAEVRAVRTSENKSVRYRIVRTSGMSIFENWLRDTQFVVGPVKGIRINEDTVICAKHPNVYFKIPNNLKEGIPIGGGVQFVGKRQAGVDSEIMITECSPCPAFTCKNYSVSGDTRLFQVYLKPNCDHEQLAESDSMGFVDFRELETPCRGKFLAWVRESITVNDCRRAATIMEVCSTAICPPLIAMSANSSRATSARTTPAGSSIGSRSSIQSRASAATSVSSNRFVGPSSRRTPSGTPQSSTSSRV
Turning to B1, the binding entry is reported as “binds”.
